The values that follow come from US8778871B2 (Takeda Pharmaceutical Company Limited, priority 2004, dated 2014).

Non-standard residues stand in square brackets, D forms with d. Arg(Me) = CNC(=N)NCCC[C@H](N)C(=O)O; Dap = NC[C@H](N)C(=O)O; azaGly = NNC(=O)O

Data set [1] can be described thus: general procedure: Fmoc solid-phase peptide synthesis; Rink Amide MBHA resin; DIPCDI/HOAt; PyAOP/HOAt/DIEA; PyBrop/HOAt. The following applies: whole synthesis.
Data set [2] in a line: general procedure: Fmoc solid-phase peptide synthesis; Rink Amide MBHA; DIPCDI/HOAt; PyAOP/HOAt/DIEA; PyBrop/HOAt. The following applies: whole synthesis.
A short description of data set [3]: general procedure: Fmoc solid-phase peptide synthesis; 2-chlorotrityl chloride; DIPCDI/HOAt; PyAOP/HOAt/DIEA; PyBrop/HOAt. The conditions noted are these: whole synthesis.
Data set [4] in a line: general procedure: Fmoc solid-phase peptide synthesis; Rink amide MBHA; DIPCDI/HOAt; PyAOP/HOAt/DIEA; PyBrop/HOAt. The conditions noted are these: whole synthesis, scale 15 μmol.

“Ac-D-Tyr(^tBu)-D-Trp(Boc)-Dap(Mtt)-Ser(^tBu)-Phe-AzaGly-Leu-Arg(Boc2,Me)-Trp(Boc)-Rink Amide MBHA resin” displayed an isolated mass in data set [1] (scale 0.257 mmol, acetate) of 58.3 mg.

Consider “Ac-D-Tyr-D-Pya(4)-Asn-Thr-Phe-AzaGly-Leu-Arg(Me)-Trp-NH2”, for which the crude mass in data set [2] (scale 1 mmol) was found to be 949.0 mg. The isolated mass in data set [2] (scale 1 mmol, TFA salt) stood at 361.1 mg; in data set [2] (scale 1 mmol, acetate), 309.3 mg.

Take “Ac-D-Tyr-D-Trp-Alb-Ser-Phe-AzaGly-Leu-Arg(Me)-Trp-NH2”: the isolated mass is given as 106.5 mg in data set [2] (scale 0.257 mmol, TFA salt) and 97.5 mg in data set [2] (scale 0.257 mmol, acetate).

With Ac-[dY][dW]NTF[azaGly]L[Arg(Me)]W-NH2, the crude mass entry in data set [2] (scale 1 mmol) is “about 650 mg”. Moreover, the isolated mass stood at 255.5 mg in data set [2] (scale 1 mmol, TFA salt) and 225.3 mg in data set [2] (scale 1 mmol, acetate).

As for “Ac-[dY][dW][Dap]SF[azaGly]L[Arg(Me)]W-NH2”, the isolated mass in data set [1] (scale 0.257 mmol) turned out to be 106.5 mg.

Regarding “Benzoyl-AzaPhe-AzaGly-Leu-Arg(Me)-Trp-NH2”, the isolated mass in data set [2] (scale 0.015 mmol) is 3.2 mg.

“Boc-D-Tyr(Bu^t)D-Pya(4)Asn(Trt)Ser(Bu^t)PheAzaGlyLeu-OH” had a crude yield in data set [3] of 98%.

With “Bzl2NCO-AzaGly-Leu-Arg(Boc2,Me)-Trp(Boc)-Rink Amide MBHA resin”, the isolated mass in data set [2] (scale 0.015 mmol, acetate) was 2.2 mg.

In data set [1] (scale 0.03 mmol, acetate), “des(1)-[D-Tyr2,D-Pya(4)3,AzaGly7,Arg(Me)9,Trp10]MS10” displayed an isolated mass of 6.6 mg.

In data set [2] (scale 0.05 mmol, acetate), “des(1-3)-3-Phenylpropionyl-[AzaGly7,Arg(Me)9,Trp10]MS10” returned an isolated mass of 5.2 mg.

“des(1-5)-4-Pyridinecarbonyl-[AzaGly7,Arg(Me)9,Trp10]MS10” had an isolated mass in data set [2] (scale 0.1 mmol, acetate) of 21.6 mg.

In the case of “des(1-5)-Benzoyl-[6Ψ7,CH2O,Arg(Me)9,Trp10]MS10”, the isolated mass in data set [4] is reported as 2.5 mg.
